At least one structure is not confirmed: it was looked up by name or label, or the drawing left a doubt.
System: immunoglobulin light chain protein WIL-FL T46L
Experiment: Differential scanning fluorimetry (thermal shift) assay
Assay type: binding
Conditions: Table B; temperature shift [Tm]compound-[Tm]vehicle; recombinant WIL-FL T46L

Cc1cc(N2CC[C@](C)(c3cccc(C(F)(F)F)c3)C2)cn2nc(C(=O)N3CC[C@@]4(CCN(c5cccc(C(=O)O)n5)C4)C3)nc12 [Compound 753, 6-[(5R)-2-[8-methyl-6-[(3R)-3-methyl-3-[3-(trifluoromethyl)phenyl]pyrrolidin-1-yl]-[1,2,4]triazolo[1,5-a]pyridine-2-carbonyl]-2,7-diazaspiro[4.4]nonan-7-yl]pyridine-2-carboxylic acid]
DSF: ***** (>2.5° C.=*****)

Reference: US20260285857A1, “BICYCLIC AND HETEROCYCLIC AMIDE COMPOUNDS” (priority 2024, published 2026)
